The supplement of paper PMC11732987, “Enantioselective OTUD7B fragment discovery through chemoproteomics screening and high-throughput optimisation” (Communications Chemistry, 2025)
Some of the results follow. The data scatter; read single values as rough.

Sequences of proteins named here, by UniProt entry; tags and fusion partners are left off. A change or cut given only in a name is not applied to a line headed by its entry.
UniProt P32856: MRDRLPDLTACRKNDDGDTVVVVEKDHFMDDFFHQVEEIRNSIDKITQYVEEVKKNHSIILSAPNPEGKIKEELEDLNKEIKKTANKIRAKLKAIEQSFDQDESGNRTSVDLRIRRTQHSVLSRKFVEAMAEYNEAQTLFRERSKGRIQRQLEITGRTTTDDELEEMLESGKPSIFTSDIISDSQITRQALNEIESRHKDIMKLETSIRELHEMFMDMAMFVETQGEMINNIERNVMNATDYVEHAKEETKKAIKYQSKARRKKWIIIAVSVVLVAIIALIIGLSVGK

Target: STX2 C11 (UniProt P32856)
Experiment: log2 mean competition ratio of IA-DTB cysteine labelling (DMSO/compound) (log2 ratio); higher = stronger cysteine engagement by compound
Details: 50 µM; treatment time: 4 h; cell line lysate: HEK293T
Description: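 IA-DTB competitive cysteine chemoproteomics in HEK293T RIPA lysate. Lysates were treated with compound 29 or 30 at 50 or 200 µM for 4 h, then IA-DTB (500 µM, 1 h), trypsin-digested, NeutrAvidin-enriched and analysed by diaPASEF. Competition ratio = intensity DMSO / intensity compound (n=4 treated, n=64 DMSO); binding: mean log2 CR ≥ 1 and p ≤ 0.05 plus QC filters. Target is the cysteine site.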

| Structure (SMILES) | log2 mean competition ratio |
| --- | --- |
| O=C(CCl)N[C@@H]1CCCc2ccccc21 | -0.0949 |
| O=C(CCl)N[C@H]1CCCc2ccccc21 | -0.365 |

Same assay, conditions: 200 µM; treatment time: 4 h; cell line lysate: HEK293T

| Structure (SMILES) | log2 mean competition ratio |
| --- | --- |
| O=C(CCl)N[C@@H]1CCCc2ccccc21 | 0.468 |
| O=C(CCl)N[C@H]1CCCc2ccccc21 | 0.277 |
